Results are given in words; binding and its absence hold for the method and conditions named. Some results given as binding are weak or reduced against the parent protein; the word gives no strength.
Target: T1, TIM2-receptor of a B-cell (UniProt Q8R183)
T1 sequence (looked up): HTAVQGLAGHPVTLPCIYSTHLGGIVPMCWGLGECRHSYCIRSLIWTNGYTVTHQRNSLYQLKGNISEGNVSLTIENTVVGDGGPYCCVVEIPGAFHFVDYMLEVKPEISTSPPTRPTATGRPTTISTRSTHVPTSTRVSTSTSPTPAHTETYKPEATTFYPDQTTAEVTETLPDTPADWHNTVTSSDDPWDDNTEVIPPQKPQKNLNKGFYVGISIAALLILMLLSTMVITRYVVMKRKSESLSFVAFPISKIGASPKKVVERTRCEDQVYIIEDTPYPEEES
Assay: in vivo lymph node targeting in mice, NIR fluorescence imaging of cy5.5-labelled nanoparticles (no direct binding assay described)

binding: binds
Substance: human ferritin heavy chain protein nanoparticle (from UniProt P02794 1-183)

Source: US10206987
